Laboratory results published in PubChem BioAssay AID504467 (National Center for Advancing Translational Sciences (NCATS), 2011).
Among all 330,000 compounds or so, about 7,700 (2.3%) were called active. Inconclusive means that the source gave no clear call. Such entries were picked first, then a sample of the others. Calls follow the shape of the dose curve; as a rule, active = well fitted inhibition curve with a large enough effect; inconclusive = small, poorly fitted or top-dose-only effect, or effect the other way; inactive = flat fitted curve, though single readings scatter. Potencies beside an inconclusive call are fits to weak or partial responses and may not hold up.

Test: qHTS screen for small molecules that inhibit ELG1-dependent DNA repair in human embryonic kidney (HEK293T) cells expressing luciferase-tagged ELG1; also: nearly all actives have a fitted effect of over 55% in size
Conditions: HEK293T ELG1-luciferase reporter, luminescence, 16 h, DNA damage induced by 5-fluorouridine; activity change, negative = inhibition: at 46.1 µM (top of the series)
Procedure, shortened: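 In this reporter screen, reduction of luminescence relative to DMSO vehicle indicated activity. Compounds and 5-fluorouridine were added together to 2,000 cells per well, incubated for 16 hr at 37 °C, then developed with ONE-Glo.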
% is scaled to controls: 0 for no effect and ±100 for the full control effect; potency is read from the fitted curve at half-maximal effect.

Row | Structure (SMILES) | Potency | activity change, negative = inhibition
1 | N#CCCn1c(-c2nonc2NC(=O)c2ccccc2Cl)nc2ccccc21 | inconclusive: 18.4 µM [inhibitor, partial curve, poor fit] | –
2 | O=C(CSc1nc2ccccc2c(=O)n1CCC(=O)N1CCCCC1)NCc1ccccc1 | active: 14.6 µM | –
3 | COc1ccccc1-c1cc(C(=O)NCc2ccco2)no1 | inconclusive: 23.1 µM [activator, single point] | –
4 | Cc1[nH]n(-c2ccccc2)c(=O)c1/C=N/N1CCOCC1 | – | inactive: 0%
5 | CCN(C[C@H]1N[C@@](CC)(C(=O)OC)[C@H]2C(=O)N(Cc3ccccc3)C(=O)[C@@H]12)C(=O)c1ccc(C)cc1 | active: 8.2 µM | –
6 | COC(=O)c1cnc2ccccc2n1 | inconclusive: 5.8 µM [activator, partial curve] | –
7 | CCOc1ccc(N(C)S(=O)(=O)c2ccc3[nH]cc(C(=O)NCCCOC)c(=O)c3c2)cc1 | – | inactive: -17.9%
8 | CCc1ccc(-c2cc(C(F)(F)F)n3nc(C(=O)Nc4c(C)nn(Cc5ccccc5C)c4C)cc3n2)s1 | inconclusive: 7.31 µM [inhibitor, partial curve] | –
9 | O=C(Nc1ccc(Cl)c(Cl)c1)Nc1ccc(Br)cc1F | inconclusive: 32.6 µM [inhibitor, single point] | –
10 | CN(CCC#N)c1ccc(/C=C(\C#N)c2ccccn2)cc1 | inconclusive: 0.517 µM [activator, full curve] | –
11 | COc1ccc(CCN=C(N)NS(=O)(=O)c2ccc(F)cc2)cc1 | active: 18.3 µM | –
12 | CCOc1ccccc1N/C(=N/c1nc(C)cc(C)n1)NC(=O)Nc1ccc(Cl)c(Cl)c1 | – | inactive: 2.99%
13 | COc1ccc2c(c1)CCc1c(C(=O)NCc3cccnc3)noc1-2 | inconclusive: 6.51 µM [activator, partial curve] | –
14 | COc1ccc(CN(C)CC(=O)Nc2sc3c(c2C#N)CCC3)c(OC)c1 | inconclusive: 16.4 µM [inhibitor, partial curve, poor fit] | –
15 | CSc1nnc(-c2cccc(NC(=S)NN)c2)o1 | inconclusive: 29.1 µM [inhibitor, single point] | –
16 | COc1ccccc1CNS(=O)(=O)c1c(C)nc2sccn2c1=O | – | inactive: 9.68%
17 | Cc1nnc(SCc2cccc([N+](=O)[O-])c2)s1 | inconclusive: 16.4 µM [activator, single point] | –
18 | O=C(c1ccc(C(F)(F)F)cc1)n1ccc(-c2cccs2)n1 | – | inactive: -8.79%
19 | O=C(CCOc1ccccc1)Nc1ccccc1[N+](=O)[O-] | inconclusive: 16.4 µM [activator, partial curve, poor fit] | –
20 | O=S(=O)(Nc1nc2ccccc2nc1NCc1ccco1)c1ccccc1 | – | inactive: -13%
21 | COc1ccccc1CCC(=O)Nc1ccc(OC)c(S(=O)(=O)N2CCCCC2)c1 | inconclusive: 29.1 µM [inhibitor, partial curve, poor fit] | –
22 | CCCNC(=O)c1ccccc1NC(=O)Nc1ccccc1C | – | inactive: -12.7%
23 | COc1cc2c(cc1OC)C(C(=O)N1CCN(c3ccccc3)CC1)C(c1cccs1)N(C)C2=O (stereo not given) | active: 18.4 µM | –
24 | O=C(NCCc1c[nH]c2ccccc12)C(=O)NCC1OCCN1S(=O)(=O)c1ccc(F)cc1 (stereo not given) | inconclusive: 20.6 µM [inhibitor, partial curve, poor fit] | –

Row | Structure (SMILES) | Potency | activity change, negative = inhibition
25 | CCN(CC)S(=O)(=O)c1ccc(N2CCCCC2)c(NC(=O)C2CCN(C(=O)c3ccc(F)cc3)CC2)c1 | inconclusive: 29.1 µM [inhibitor, single point] | –
26 | O=S(=O)(NC1=NCCCCC1)c1ccc2ccccc2c1 | inconclusive: 16.4 µM [activator, single point] | –
27 | Cc1cnn(C(=O)c2cc(-c3ccccc3)nc3ccccc23)c1 | – | inactive: -1.17%
28 | Brc1ccc2nc(N3CCCC3)sc2c1 | inconclusive: 2.06 µM [activator, partial curve] | –
29 | Cc1cc(Nc2ccc(Cl)cc2)n(-c2ccccc2)n1 | – | inactive: 0%
30 | CC1CCN(C(=O)CCCOc2ccc(Cl)cc2)CC1 | inconclusive: 14.6 µM [activator, partial curve] | –
31 | Cc1ccc(NC(=O)COC(=O)c2ccc(S(=O)(=O)N3CCCC3)cc2)cc1 | – | inactive: 10.4%
32 | CCOc1ccc2nc(NC(=O)NC3CCCCC3)sc2c1 | inconclusive: 32.6 µM [activator, single point] | –
33 | CC(=O)Oc1ccc(Cl)cc1/C=C/c1ccc2ccccc2n1 | inconclusive: 2.59 µM [activator, partial curve] | –
34 | Cc1ccc(/C=C2\SC(=O)N(CCC(=O)N3CCN(C)CC3)C2=O)cc1 | inconclusive: 23.1 µM [activator, partial curve] | –
35 | Cc1cccn2c(=O)c3cc(C(=O)N4CCCCC4C)sc3nc12 (stereo not given) | inconclusive: 7.3 µM [activator, partial curve, poor fit] | –
36 | Nc1nc(Br)c2c(F)cccc2c1-c1ccccc1 | – | inactive: 13.8%
37 | Cc1ccc(S(=O)(=O)Nc2c(C)n(C)n(-c3ccccc3)c2=O)cc1 | inactive | –
38 | O=C1NCCN/C1=C\C(=O)c1ccc(Br)cc1 | inconclusive: 7.3 µM [activator, partial curve] | –
39 | O=c1cc(CO)occ1OCc1ccccc1 | inconclusive: 10.3 µM [activator, partial curve] | –
40 | CCOC(=O)C(OC(=O)c1sc(=S)n(C)c1C)C(C)=O (stereo not given) | inconclusive: 32.6 µM [activator, partial curve, poor fit] | –
41 | COc1ccc(COC(=O)C2=C(C)NC(=O)NC2c2ccc(F)cc2)cc1 (stereo not given) | inconclusive: 9.2 µM [inhibitor, partial curve] | –
42 | O=C(O)CCN1C(=O)c2ccc(Oc3ccc4c(c3)C(=O)N(CCC(=O)O)C4=O)cc2C1=O | inconclusive: 29.1 µM [activator, single point] | –
43 | Cc1cc(C(=O)Nc2nc(C)c(C(=O)N(C)C)s2)ccc1[N+](=O)[O-] | inconclusive: 2.31 µM [activator, full curve] | –
44 | Cc1cc(NC(=O)Nc2ccc(F)cc2F)n(C)n1 | – | inactive: -6.69%
45 | CCS(=O)(=O)c1ccc(O)c(NC(=O)Nc2ccccc2OC)c1 | – | inactive: 23.3%
46 | COC(=O)C1CCN(C(=O)c2ccc3nc(-c4cccc(OC)c4)oc3c2)CC1 | inconclusive: 6.51 µM [activator, partial curve] | –
47 | S=C(NCc1ccncc1)Nc1ccccc1 | – | inactive: -12.5%
48 | CCN1C(=O)[C@H]2[C@@H](c3ccc(-c4cccc(Cl)c4)cc3)N[C@@](Cc3ccccc3)(C(=O)OC)[C@H]2C1=O | – | inactive: 1.51%

Row | Structure (SMILES) | Potency | activity change, negative = inhibition
49 | O=C(c1cccc2c1-c1ccccc1/C2=N/O)N1CCCCC1 | inconclusive: 25.9 µM [inhibitor, single point] | –
50 | CC(NC(=O)Nc1ccccc1Cl)c1ccc2c(c1)OCO2 (stereo not given) | inconclusive: 9.2 µM [inhibitor, partial curve, poor fit] | –
51 | Cc1ccc(N(Cc2ccc(C(=O)Nc3ccccc3C(=O)NCc3ccco3)cc2)S(C)(=O)=O)cc1C | active: 4.61 µM | –
52 | S=C(NCc1ccncc1)NC1CCCC1 | inconclusive: 1.03 µM [inhibitor, partial curve, poor fit] | –
53 | CC(=O)Oc1ccc(Oc2ccc(-c3noc(C)n3)cc2)cc1 | inconclusive: 12.6 µM [activator, single point] | –
54 | COc1ccc(CNC(=O)C2CC(c3ccccc3[N+](=O)[O-])=NO2)cc1 (stereo not given) | inconclusive: 16.4 µM [activator, partial curve] | –
55 | COc1cccc(NC(=O)c2oc3ccccc3c2NC(=O)C(C)(C)C)c1 | inconclusive: 18.4 µM [inhibitor, partial curve] | –
56 | Cc1ccc(NC(=O)Cc2ccc(Cl)cc2)cc1S(=O)(=O)N1CCCCCC1 | active: 11.2 µM | –
57 | O=C(Nc1cccc(Cl)c1)Nc1ccnc(-c2cccnc2)n1 | inconclusive: 18.3 µM [inhibitor, single point] | –
58 | CCC(=O)Nc1ccc2nc(C3CC3)n(Cc3ccccc3)c(=O)c2c1 | inconclusive: 8.2 µM [activator, partial curve] | –
59 | CC(=O)c1cccc(NS(=O)(=O)c2cc(OCC(N)=O)c(C)cc2Cl)c1 | – | inactive: 1.61%
60 | Cc1ccn2cc(CSc3ccccc3)nc2c1 | inconclusive: 5.8 µM [activator, partial curve] | –
61 | CC(=O)NCc1ccc(-c2csc(NC(=O)CCc3nc4ccccc4c(=O)[nH]3)n2)s1 | active: 20.6 µM | –
62 | CCOc1cccc(N2CCN(CCNC(=O)Nc3ccc(C)cc3)CC2)c1C | inconclusive: 9.2 µM [inhibitor, partial curve, poor fit] | –
63 | Cc1noc(/C=C/c2cccnc2)c1[N+](=O)[O-] | inconclusive: 18.3 µM [inhibitor, single point] | –
64 | O=C(COC(=O)/C=C/c1ccco1)Nc1ncc(Cl)cc1Cl | – | inactive: 1.74%
65 | Nc1nc(SCc2ccc([N+](=O)[O-])cc2)c2ncn(C3OC(CO)C(O)C3O)c2n1 (stereo not given) | inconclusive: 0.116 µM [inhibitor, full curve] | –
66 | Cc1ccccc1C(=O)N/N=C/c1ccc([N+](=O)[O-])s1 | inconclusive: 18.4 µM [inhibitor, single point] | –
67 | Cc1cc(NC(=O)CSc2cn(CCNC(=O)c3ccc(Cl)cc3)c3ccccc23)no1 | inconclusive: 29.1 µM [inhibitor, single point] | –
68 | O=C(c1ccco1)c1cn(CC(=O)N2CCCc3ccccc32)c2ccccc12 | inconclusive: 20.6 µM [inhibitor, single point] | –
69 | CCCn1nc(C(=O)Nc2ccc3nc(N4CCOCC4)sc3c2)ccc1=O | active: 16.4 µM | –
70 | Cc1ccc(NC(=O)C2=CC=CN3CCS(=O)(=O)N=C23)cc1 | inconclusive: 23.1 µM [activator, single point] | –

Reprinted at random: 4 records from the list, in no set order.
Row | Structure (SMILES) | Potency | activity change, negative = inhibition
57 | O=C(Nc1cccc(Cl)c1)Nc1ccnc(-c2cccnc2)n1 | inconclusive: 18.3 µM [inhibitor, single point] | –
49 | O=C(c1cccc2c1-c1ccccc1/C2=N/O)N1CCCCC1 | inconclusive: 25.9 µM [inhibitor, single point] | –
51 | Cc1ccc(N(Cc2ccc(C(=O)Nc3ccccc3C(=O)NCc3ccco3)cc2)S(C)(=O)=O)cc1C | active: 4.61 µM | –
62 | CCOc1cccc(N2CCN(CCNC(=O)Nc3ccc(C)cc3)CC2)c1C | inconclusive: 9.2 µM [inhibitor, partial curve, poor fit] | –
